According to the supplement of paper PMC10849652:
This is one part of the list.

The chains behind the UniProt entries cited, without tags or fusion partners. Where a name states a change or a piece, a line headed by the entry shows the natural chain unless it says otherwise.
UniProt P21926: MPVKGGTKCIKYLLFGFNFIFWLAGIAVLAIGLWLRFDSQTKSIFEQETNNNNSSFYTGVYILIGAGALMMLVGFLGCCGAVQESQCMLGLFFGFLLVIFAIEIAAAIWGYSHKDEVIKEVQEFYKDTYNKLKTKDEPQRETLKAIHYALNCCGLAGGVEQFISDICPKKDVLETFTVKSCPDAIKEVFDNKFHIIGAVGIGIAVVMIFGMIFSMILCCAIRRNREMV
UniProt Q9P209, whole entry, looked up: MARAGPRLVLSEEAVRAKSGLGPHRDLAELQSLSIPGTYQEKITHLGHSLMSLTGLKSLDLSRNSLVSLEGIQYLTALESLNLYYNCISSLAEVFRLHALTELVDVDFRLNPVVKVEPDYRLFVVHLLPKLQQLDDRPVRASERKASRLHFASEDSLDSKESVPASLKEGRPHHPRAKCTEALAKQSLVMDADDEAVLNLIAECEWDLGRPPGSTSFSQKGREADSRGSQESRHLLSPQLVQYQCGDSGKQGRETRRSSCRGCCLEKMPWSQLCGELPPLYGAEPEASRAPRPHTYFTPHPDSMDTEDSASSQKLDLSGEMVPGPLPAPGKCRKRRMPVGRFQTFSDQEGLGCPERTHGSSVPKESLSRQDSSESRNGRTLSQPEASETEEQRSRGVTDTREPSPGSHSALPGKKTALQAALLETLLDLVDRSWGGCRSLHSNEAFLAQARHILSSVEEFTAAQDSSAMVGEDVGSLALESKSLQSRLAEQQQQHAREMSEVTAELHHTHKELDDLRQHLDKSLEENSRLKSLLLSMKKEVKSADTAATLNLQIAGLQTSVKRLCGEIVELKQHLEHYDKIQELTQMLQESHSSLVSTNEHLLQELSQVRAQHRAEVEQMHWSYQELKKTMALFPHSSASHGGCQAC
UniProt Q5JTW2: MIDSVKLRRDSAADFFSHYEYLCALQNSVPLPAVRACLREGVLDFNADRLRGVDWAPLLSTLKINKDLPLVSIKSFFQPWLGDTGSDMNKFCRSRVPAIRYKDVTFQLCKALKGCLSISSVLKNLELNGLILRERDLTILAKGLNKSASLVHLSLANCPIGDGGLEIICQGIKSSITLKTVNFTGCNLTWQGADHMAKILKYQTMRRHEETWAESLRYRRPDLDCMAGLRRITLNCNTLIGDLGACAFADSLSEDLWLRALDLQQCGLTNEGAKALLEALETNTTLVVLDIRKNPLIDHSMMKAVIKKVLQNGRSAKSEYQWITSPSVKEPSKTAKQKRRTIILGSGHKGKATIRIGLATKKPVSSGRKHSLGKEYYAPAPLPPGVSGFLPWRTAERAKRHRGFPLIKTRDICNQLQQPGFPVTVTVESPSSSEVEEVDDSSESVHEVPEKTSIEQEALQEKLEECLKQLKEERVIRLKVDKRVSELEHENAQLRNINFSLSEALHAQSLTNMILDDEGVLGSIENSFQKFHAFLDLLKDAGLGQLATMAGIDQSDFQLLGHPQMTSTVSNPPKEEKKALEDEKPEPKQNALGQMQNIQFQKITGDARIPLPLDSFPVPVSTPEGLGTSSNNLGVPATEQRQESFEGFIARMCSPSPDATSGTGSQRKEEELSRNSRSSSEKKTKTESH
UniProt Q5TB80: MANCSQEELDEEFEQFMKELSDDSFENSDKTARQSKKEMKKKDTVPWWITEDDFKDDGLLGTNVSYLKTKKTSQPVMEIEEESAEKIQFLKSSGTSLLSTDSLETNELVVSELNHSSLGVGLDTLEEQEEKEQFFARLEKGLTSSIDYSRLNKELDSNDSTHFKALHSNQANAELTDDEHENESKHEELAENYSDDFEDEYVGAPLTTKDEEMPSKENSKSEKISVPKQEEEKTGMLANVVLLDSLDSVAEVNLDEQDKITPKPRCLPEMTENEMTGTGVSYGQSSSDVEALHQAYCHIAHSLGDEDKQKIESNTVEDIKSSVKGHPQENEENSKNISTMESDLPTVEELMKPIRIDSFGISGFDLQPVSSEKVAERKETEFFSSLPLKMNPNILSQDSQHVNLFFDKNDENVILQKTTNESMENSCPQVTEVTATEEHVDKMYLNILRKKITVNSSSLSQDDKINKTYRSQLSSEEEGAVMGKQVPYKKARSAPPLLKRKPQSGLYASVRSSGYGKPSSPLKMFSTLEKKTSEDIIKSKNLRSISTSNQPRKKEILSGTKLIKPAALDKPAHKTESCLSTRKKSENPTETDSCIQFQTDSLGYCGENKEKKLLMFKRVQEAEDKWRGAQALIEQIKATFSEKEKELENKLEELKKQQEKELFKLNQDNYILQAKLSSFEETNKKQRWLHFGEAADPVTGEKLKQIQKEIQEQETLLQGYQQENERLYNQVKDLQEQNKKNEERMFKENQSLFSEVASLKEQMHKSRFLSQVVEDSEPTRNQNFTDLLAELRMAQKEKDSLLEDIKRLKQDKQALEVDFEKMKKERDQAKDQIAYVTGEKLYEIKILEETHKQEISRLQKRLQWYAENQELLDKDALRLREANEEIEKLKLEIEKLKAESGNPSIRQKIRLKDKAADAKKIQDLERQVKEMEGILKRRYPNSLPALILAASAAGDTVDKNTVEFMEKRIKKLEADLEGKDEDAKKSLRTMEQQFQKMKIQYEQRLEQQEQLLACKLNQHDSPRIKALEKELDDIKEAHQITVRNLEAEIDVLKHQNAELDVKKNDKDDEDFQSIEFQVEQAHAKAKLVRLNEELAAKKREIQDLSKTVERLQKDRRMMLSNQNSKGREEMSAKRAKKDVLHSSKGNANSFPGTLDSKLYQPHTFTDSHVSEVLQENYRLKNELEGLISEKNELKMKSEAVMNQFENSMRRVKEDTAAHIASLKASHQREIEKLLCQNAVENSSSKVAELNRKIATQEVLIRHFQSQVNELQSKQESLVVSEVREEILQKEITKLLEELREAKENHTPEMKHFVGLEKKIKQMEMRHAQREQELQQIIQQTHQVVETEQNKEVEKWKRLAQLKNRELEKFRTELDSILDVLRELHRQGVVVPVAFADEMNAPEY
UniProt Q96BT3, whole entry, looked up: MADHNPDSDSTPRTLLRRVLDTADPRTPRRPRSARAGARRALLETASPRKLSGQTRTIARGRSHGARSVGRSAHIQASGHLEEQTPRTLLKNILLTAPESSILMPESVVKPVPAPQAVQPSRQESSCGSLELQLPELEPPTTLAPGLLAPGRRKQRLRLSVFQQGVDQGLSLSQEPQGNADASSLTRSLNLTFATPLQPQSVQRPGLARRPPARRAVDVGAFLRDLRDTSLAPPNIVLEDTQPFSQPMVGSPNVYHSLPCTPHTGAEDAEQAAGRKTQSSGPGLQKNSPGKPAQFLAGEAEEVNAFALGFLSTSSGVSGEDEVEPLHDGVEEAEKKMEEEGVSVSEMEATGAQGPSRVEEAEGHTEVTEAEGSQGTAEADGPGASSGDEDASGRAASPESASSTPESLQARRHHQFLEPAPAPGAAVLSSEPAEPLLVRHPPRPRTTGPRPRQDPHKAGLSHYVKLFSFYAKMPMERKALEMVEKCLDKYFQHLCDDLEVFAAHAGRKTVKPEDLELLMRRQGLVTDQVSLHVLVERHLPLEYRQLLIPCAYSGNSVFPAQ
UniProt Q9BU64: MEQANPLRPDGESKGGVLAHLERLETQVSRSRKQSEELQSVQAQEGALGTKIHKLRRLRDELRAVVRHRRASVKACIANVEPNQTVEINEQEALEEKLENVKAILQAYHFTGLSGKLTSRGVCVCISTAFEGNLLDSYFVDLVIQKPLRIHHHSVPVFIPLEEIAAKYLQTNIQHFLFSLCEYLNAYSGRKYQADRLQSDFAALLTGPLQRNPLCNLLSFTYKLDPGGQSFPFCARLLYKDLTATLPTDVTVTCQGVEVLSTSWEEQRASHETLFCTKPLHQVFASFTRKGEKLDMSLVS
UniProt P17676: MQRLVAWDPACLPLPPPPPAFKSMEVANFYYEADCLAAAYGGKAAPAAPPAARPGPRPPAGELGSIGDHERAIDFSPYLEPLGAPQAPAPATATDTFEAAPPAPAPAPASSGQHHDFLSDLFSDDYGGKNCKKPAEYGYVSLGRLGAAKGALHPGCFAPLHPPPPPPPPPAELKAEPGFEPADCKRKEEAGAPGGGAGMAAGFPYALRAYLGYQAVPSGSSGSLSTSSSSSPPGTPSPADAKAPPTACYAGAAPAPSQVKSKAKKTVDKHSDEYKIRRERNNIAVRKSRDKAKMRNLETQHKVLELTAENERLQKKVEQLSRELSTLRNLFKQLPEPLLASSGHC
UniProt Q9P2B7: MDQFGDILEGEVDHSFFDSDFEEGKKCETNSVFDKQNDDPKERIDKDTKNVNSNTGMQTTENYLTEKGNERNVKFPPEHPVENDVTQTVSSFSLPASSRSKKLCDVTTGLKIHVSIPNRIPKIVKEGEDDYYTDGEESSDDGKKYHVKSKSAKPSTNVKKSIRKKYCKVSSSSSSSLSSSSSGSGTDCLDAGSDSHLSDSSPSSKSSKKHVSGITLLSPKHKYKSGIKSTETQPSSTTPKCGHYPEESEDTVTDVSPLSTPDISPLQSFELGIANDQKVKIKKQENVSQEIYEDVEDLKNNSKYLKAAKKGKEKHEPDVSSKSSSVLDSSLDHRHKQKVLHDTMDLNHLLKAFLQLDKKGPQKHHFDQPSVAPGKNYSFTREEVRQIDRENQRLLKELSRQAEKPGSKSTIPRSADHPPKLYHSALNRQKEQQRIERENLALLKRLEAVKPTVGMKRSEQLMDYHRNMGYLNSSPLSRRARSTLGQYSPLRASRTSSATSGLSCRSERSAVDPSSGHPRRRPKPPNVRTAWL
UniProt Q5SW79: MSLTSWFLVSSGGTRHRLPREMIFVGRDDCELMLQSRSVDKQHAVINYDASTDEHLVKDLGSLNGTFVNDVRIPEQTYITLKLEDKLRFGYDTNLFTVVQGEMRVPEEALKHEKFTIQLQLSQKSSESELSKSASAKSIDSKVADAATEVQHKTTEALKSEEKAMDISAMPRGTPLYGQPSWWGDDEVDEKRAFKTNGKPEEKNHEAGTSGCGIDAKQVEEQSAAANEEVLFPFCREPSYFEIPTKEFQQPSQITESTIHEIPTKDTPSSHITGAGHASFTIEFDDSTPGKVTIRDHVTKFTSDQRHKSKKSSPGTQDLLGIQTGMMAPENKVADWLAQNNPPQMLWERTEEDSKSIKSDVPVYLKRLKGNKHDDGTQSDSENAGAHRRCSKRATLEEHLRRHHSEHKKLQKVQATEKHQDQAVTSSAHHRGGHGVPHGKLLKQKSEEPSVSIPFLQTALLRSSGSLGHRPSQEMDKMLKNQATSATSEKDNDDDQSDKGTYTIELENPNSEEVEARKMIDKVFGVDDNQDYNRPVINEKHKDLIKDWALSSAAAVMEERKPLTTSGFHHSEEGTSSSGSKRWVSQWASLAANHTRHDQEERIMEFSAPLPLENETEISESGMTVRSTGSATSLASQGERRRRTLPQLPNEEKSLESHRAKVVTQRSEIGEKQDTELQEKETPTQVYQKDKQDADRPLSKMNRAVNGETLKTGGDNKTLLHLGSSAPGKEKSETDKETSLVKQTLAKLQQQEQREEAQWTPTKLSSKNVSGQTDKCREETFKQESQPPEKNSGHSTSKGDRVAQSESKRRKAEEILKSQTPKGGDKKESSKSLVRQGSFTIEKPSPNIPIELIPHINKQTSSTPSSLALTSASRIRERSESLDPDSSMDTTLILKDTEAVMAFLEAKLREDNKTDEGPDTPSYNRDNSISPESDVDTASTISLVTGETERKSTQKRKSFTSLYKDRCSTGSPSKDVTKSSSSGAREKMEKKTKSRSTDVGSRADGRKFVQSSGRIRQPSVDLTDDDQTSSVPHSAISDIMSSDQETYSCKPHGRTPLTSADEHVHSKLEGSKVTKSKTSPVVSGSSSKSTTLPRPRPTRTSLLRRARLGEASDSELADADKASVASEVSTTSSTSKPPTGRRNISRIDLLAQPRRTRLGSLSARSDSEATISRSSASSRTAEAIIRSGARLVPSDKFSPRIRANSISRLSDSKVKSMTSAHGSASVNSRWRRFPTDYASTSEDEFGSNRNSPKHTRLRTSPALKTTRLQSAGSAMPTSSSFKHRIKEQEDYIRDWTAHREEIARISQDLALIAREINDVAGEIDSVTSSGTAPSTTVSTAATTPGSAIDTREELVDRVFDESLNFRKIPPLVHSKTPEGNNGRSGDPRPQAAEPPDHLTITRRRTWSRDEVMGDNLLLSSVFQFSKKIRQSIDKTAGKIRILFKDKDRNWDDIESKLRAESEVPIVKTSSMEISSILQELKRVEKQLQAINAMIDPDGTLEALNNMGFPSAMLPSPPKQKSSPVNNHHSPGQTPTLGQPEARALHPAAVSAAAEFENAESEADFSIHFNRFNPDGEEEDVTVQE

Legend:
Assay in all cases: log2 fold change, soluble protein after heating vs DMSO (PISA); higher = thermal stabilisation; K562 lysate, 10 uM; active = over 0.2 and 3.5 SD of the protein, either way, in both replicates (recomputed)
[1] = compound: C[C@H](C1=CC=C(C=C1)C(=O)NC2=C3C=CNC3=NC=C2)N
In short: (§1)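 Log-two fold change in thermal stability relative to solvent controls is reported from duplicates. For each sample, crude K562 extract from dounce-homogenised pellets in PBS pH 7.4 with 1 mM MgCl2, at 1 mg/mL protein, was treated with 10 μM compound for 30 min. Aliquots heated for 3 min across 48°C-58°C were pooled, brought to 0.5% NP-40 at 4°C and cleared at 21,000xg for 90 min. The supernatant was quantified by TMTpro 16plex LC-MS/MS with channel sums equalised.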

[2] = compound: C[C@H](Nc1ncnc2nc[nH]c12)c1cc2cccc(Cl)c2c(=O)n1-c1ccccc1 [duvelisib]
In short: as §1

[3] = compound: Cc1cc(Nc2cc(CN3CCOCC3)c3nc(C)c(Cc4ccc(Cl)cc4F)n3n2)n[nH]1 [gandotinib]
In short: as §1

[4] = compound: Cc1cc(Nc2cc(N3CCN(C)CC3)nc(Sc3ccc(NC(=O)C4CC4)cc3)n2)n[nH]1 [tozasertib]
In short: as §1

[5] = compound: Cc1cccc(CC(=O)N2CCc3c2ccc(-c2cn(C)c4ncnc(N)c24)c3F)n1
In short: as §1

[6] = compound: Cc1nc(Nc2ncc(C(=O)Nc3c(C)cccc3Cl)s2)cc(N2CCN(CCO)CC2)n1 [dasatinib]
In short: as §1

[7] = compound: Cn1cc(-c2ccc3c(c2)CCN3C(=O)Cc2cccc(C(F)(F)F)c2)c2c(N)ncnc21
In short: as §1

[8] = compound: NC1(c2ccc(-c3nc4ccn5c(=O)[nH]nc5c4cc3-c3ccccc3)cc2)CCC1
In short: as §1

[9] = compound: C[C@@H](Oc1cc(-c2cnn(C3CCNCC3)c2)cnc1N)c1c(Cl)ccc(F)c1Cl [crizotinib]
In short: as §1

[10] = compound: Cc1ccc(-n2nc(C(C)(C)C)cc2NC(=O)Nc2ccc(OCCN3CCOCC3)c3ccccc23)cc1 [doramapimod]
In short: as §1

[11] = compound: Cn1cc(CNCC2CCN(c3ncc(C(=O)NO)cn3)CC2)c2ccccc21 [quisinostat]
In short: as §1

[12] = compound: NC(=O)Nc1cc(-c2cccc(F)c2)sc1C(=O)N[C@H]1CCCNC1
In short: as §1

[13] = compound: CS(=O)(=O)N1CCN(Cc2cc3nc(-c4cccc5[nH]ncc45)nc(N4CCOCC4)c3s2)CC1 [pictilisib]
In short: as §1

[14] = compound: Cc1ccc(NC(=O)c2ccc(CN3CC[C@H](N(C)C)C3)c(C(F)(F)F)c2)cc1Nc1nccc(-c2cncnc2)n1 [bafetinib]
In short: as §1

[15] = compound: Cc1cn(-c2cc(NC(=O)c3ccc(C)c(Nc4nccc(-c5cccnc5)n4)c3)cc(C(F)(F)F)c2)cn1 [nilotinib]
In short: as §1

[16] = compound: Cc1nc(Nc2n[nH]c3c2CN(C(=O)N[C@H](CN(C)C)c2ccccc2)C3(C)C)c2sccc2n1
In short: as §1

[17] = compound: Cc1ncc(-c2ccnc(Nc3ccc(S(C)(=O)=O)cc3)n2)n1C(C)C
In short: as §1

[18] = compound: Cn1cncc1[C@@](N)(c1ccc(Cl)cc1)c1ccc2c(c1)c(-c1cccc(Cl)c1)cc(=O)n2C [tipifarnib]
In short: as §1

Measured: log2 fold change

CD9 (UniProt P21926)
inactive: [1] 0.044 | [2] 0.109 | [3] 0.108 | [4] -0.148 | [5] 0.138 | [6] 0.019 | [7] 0.03

CEP72 (UniProt Q9P209)
inactive: [2] 0.011 | [6] -0.086 | [7] 0.029 | [8] 0.056

CENPC (UniProt Q03188)
inactive: [1] 0.003 | [2] 0.035 | [3] -0.066 | [4] 0.007 | [5] 0.015 | [6] -0.044 | [7] -0.063 | [8] -0.257

CEP78 isoform 2 (UniProt Q5JTW2)
inactive: [9] -0.036 | [2] 0.099 | [10] 0.025 | [6] 0.118 | [7] 0.058 | [11] 0.037 | [12] -0.058 | [8] 0.13

CFLAR (UniProt O15519)
inactive: [9] -0.023 | [1] 0 | [2] -0.217 | [3] 0.033 | [4] 0.003 | [10] 0.017 | [5] -0.113 | [6] 0.034 | [7] 0.115 | [11] -0.064 | [12] 0.074

CDC37 (UniProt K7EL68)
inactive: [13] -0.211 | [9] 0.021 | [1] 0.011 | [3] -0.038 | [10] -0.035 | [14] -0.096 | [5] 0.003 | [11] -0.161 | [12] 0.007

CELSR2 (UniProt Q9HCU4)
inactive: [8] 0.287

Pulled one by one from the list above, two records:
CDC37 (UniProt K7EL68)
inactive: [13] -0.211 | [9] 0.021 | [1] 0.011 | [3] -0.038 | [10] -0.035 | [14] -0.096 | [5] 0.003 | [11] -0.161 | [12] 0.007

CENPC (UniProt Q03188)
inactive: [1] 0.003 | [2] 0.035 | [3] -0.066 | [4] 0.007 | [5] 0.015 | [6] -0.044 | [7] -0.063 | [8] -0.257

(cont.)

CEP162 (UniProt Q5TB80)
inactive: [9] 0.013 | [10] 0.002 | [11] -0.124 | [12] 0.077

CENPT (UniProt Q96BT3)
inactive: [8] 0.265

CENPO (UniProt Q9BU64)
inactive: [1] -0.033 | [3] -0.392 | [5] 0.047 | [15] 0.222 | [16] -0.321 | [17] -0.199 | [18] -0.063 | [8] 0.175

CEBPB (UniProt P17676)
inactive: [13] 0.154 | [9] -0.003 | [1] -0.098 | [2] -0.035 | [3] 0.143 | [4] 0.028 | [10] 0.091 | [14] -0.057 | [5] 0.067 | [6] 0.007 | [7] -0.136 | [11] -0.053 | [12] 0.011 | [8] 0

CFAP97 (UniProt Q9P2B7)
inactive: [9] 0.046 | [1] 0.192 | [2] -0.155 | [3] -0.422 | [10] 0.124 | [5] 0 | [6] 0.143 | [7] 0.144 | [11] -0.131 | [12] -0.074 | [8] 0.02

CEP170 isoform 2 (UniProt Q5SW79)
inactive: [1] -0.058 | [2] -0.082 | [3] -0.004 | [4] 0.077 | [5] 0.062 | [6] -0.035 | [7] -0.072
